Laboratory results taken from publication PMC9916574.
Results are given in words; binding and its absence hold for the method and conditions named. In cells and extracts the contact can be indirect. Some binding calls cover weakened binding; strength is not graded here. Where a sequence is shown, tags or fusion partners need not be part of it.

Molecular target: T1, p53 binding domain of Retinoblastoma binding protein 6 (RBBP6), polyhistidine-tagged (human) (UniProt Q7Z6E9)
T1 sequence: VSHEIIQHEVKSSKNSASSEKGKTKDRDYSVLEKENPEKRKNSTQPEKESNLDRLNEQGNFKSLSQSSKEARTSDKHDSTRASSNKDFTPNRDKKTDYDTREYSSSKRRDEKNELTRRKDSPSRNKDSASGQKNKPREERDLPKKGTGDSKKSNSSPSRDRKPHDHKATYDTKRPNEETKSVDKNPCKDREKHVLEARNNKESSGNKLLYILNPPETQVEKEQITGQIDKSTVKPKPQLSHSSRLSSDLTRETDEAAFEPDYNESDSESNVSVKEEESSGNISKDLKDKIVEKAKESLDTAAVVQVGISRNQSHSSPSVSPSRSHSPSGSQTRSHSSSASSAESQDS
Assay: co-IP; purified recombinant RBBP6-p53BD added to HEK293T cell lysate, 3 h at 4°C; anti-polyhistidine antibody, protein A agarose; beads washed 5 times with PBS; Western blot with anti-p53; only the target purified

binding: binds
Substance: endogenous p53 (from UniProt P04637 1-393)
